According to PubChem BioAssay AID2685 (National Center for Advancing Translational Sciences (NCATS), 2010):
Out of some 320,000 compounds screened, about 2,100 (0.66%) were called active. Inconclusive means that the source gave no clear call. Such entries were picked first, then a sample of the others. Calls follow the shape of the dose curve; as a rule, active = well fitted inhibition curve with a large enough effect in the signal ratio, with a control signal flat (not every such curve was filed as active); inconclusive = small, poorly fitted or top-dose-only effect, or effect the other way, or a change in a side signal; inactive = flat fitted curve, though single readings scatter; the % refers to the signal ratio. Potencies of inconclusive entries are doubtful fits and often do not repeat.

Experiment: qHTS Assay for Lipid Storage Modulators in Drosophila S3 Cells
Details: BODIPY lipid droplet fluorescence, 18-24 h, cells fed with added oleic acid; lipid storage change, negative = inhibition: at 46.1 µM (top of the series) unless noted
Summary of the method: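 Drosophila S3 cells loaded with oleic acid (400 uM, as added) and compounds at several concentrations; lipid droplets imaged by 488-nm laser-scanning cytometry, 500–530 nm intensity and object ratio to cell channel. Percent activity normalized to 20 uM Triacsin C.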
% is scaled to controls: 0 for no effect and ±100 for the full control effect; potency is read from the fitted curve at half-maximal effect.

SMILES | lipid storage change, negative = inhibition | Potency
O=C(c1ccc2c(c1)OCO2)N1CCc2ccccc2C1 | inconclusive: 11.2% | 
O=C(Nc1cc(C(F)(F)F)ccc1Cl)c1cc(C2CC2)on1 | inconclusive: 11.2% | 
Cc1cccc(N(CC(=O)N2CCN(C)CC2)S(=O)(=O)c2ccccc2)c1 | inconclusive: -7.07% | 
CCCCN(C(=O)C1CCC1)c1c(N)n(CCC)c(=O)[nH]c1=O | inconclusive: 0.786% | 
Cc1ccc(OCC(=O)OCC(=O)NC2CC2)cc1C |  | inconclusive: 0.13 µM [falling, full curve, poor fit]
CCCCCCCC(=O)N1c2ccccc2NC(=O)C1CC(=O)Nc1ccc(C(=O)O)cc1 (centres undefined) | inconclusive: -15.6% | 
CCCNC(=O)c1ccc(-c2nn(C)c(=O)c3ccccc23)cc1 |  | inconclusive: 6.51 µM [activator, single point]
CC(Oc1cccnc1[N+](=O)[O-])C(=O)Nc1ccc(F)cc1 (centres undefined) |  | inconclusive: 0.13 µM [falling, full curve, poor fit]
CC(NC(=O)c1ccc(S(=O)(=O)N(C)C)cc1)c1ccc(-n2ccnc2)cc1 (centres undefined) |  | inconclusive: 3.66 µM [activator, full curve, poor fit]
COc1ccc(CC(C(=O)Nc2ccc(OC)cc2)c2nn[nH]n2)cc1 (centres undefined) | inconclusive: -21.7% | 
COc1cc(/C=C/C(=O)N2C(=O)c3cccc(N)c3C2=O)cc(OC)c1OC |  | active: 5.17 µM
Cc1nn(CCC(=O)NNC(=S)Nc2ccc([N+](=O)[O-])cc2)c(C)c1[N+](=O)[O-] | inconclusive: 22.3% | 
CCOC(=O)Cn1nc(-c2ccc(C)cc2)ccc1=O |  | inconclusive: 18.4 µM [rising, partial curve]
CCc1nnc(NC(=O)c2cccc(NC(=O)C(C)C)c2)s1 | inconclusive: -30.6% | 
COc1cccc(CN(C)C(=O)C2CC(=O)N(c3ccc4c(c3)OCCO4)C2)c1 (centres undefined) | inconclusive: 26% [at 0.0737 µM] | 
Cc1nc2c(C(=O)NCCc3ccccc3Cl)c[nH]n2c(=O)c1Cl | inconclusive: 18.1% | 
O=C(Cn1cnc2sc(-c3ccccc3)cc2c1=O)NCc1ccco1 |  | inconclusive: 6.51 µM [rising, single point]
CCn1cc(C(=O)NCc2ccccc2F)c(=O)c2ccc(C)nc21 |  | inconclusive: 1.64 µM [falling, partial curve, poor fit]
O=C1Nc2ccccc2/C1=N/c1sc2c(c1C(=O)NCCc1ccccc1)CCCC2 | inconclusive: 1.09% | 
COc1cc2ncnc(NCCc3ccccc3)c2cc1OC |  | inconclusive: 29.1 µM [falling, single point]
Cc1ccc(C(=O)Nc2cc3[nH]c(=O)oc3cc2C)cc1 |  | inconclusive: 2.59 µM [activator, partial curve]
O=C(c1cc2cc(Br)cc(Br)c2oc1=O)N1CCOCC1 |  | inconclusive: 18.4 µM [falling, single point]
COc1ccc(-n2c(C)cc(C(=O)CN3C(=O)C(=O)N(Cc4ccccc4)C3=O)c2C)cc1 | inconclusive: 36.1% | 
C[C@H](NC(=O)OC(C)(C)C)c1nnc(SCC(N)=O)o1 | inconclusive: 32.4% | 
Cc1ccc(CN2CCN(/N=C/c3cccn3C)CC2)c(C)c1 | inconclusive: 101% | 

4 records picked at random from the list so far:
SMILES | lipid storage change, negative = inhibition | Potency
C[C@H](NC(=O)OC(C)(C)C)c1nnc(SCC(N)=O)o1 | inconclusive: 32.4% | 
CCCNC(=O)c1ccc(-c2nn(C)c(=O)c3ccccc23)cc1 |  | inconclusive: 6.51 µM [activator, single point]
CCn1cc(C(=O)NCc2ccccc2F)c(=O)c2ccc(C)nc21 |  | inconclusive: 1.64 µM [falling, partial curve, poor fit]
COc1cc2ncnc(NCCc3ccccc3)c2cc1OC |  | inconclusive: 29.1 µM [falling, single point]

(list continues)

SMILES | lipid storage change, negative = inhibition | Potency
Cc1c(C(=O)N/N=C/c2ccccc2)[nH]c2ccc(Cl)cc12 | inconclusive: -20.6% | 
Cc1nc(Cl)sc1C(=O)Nc1ccccc1 | inconclusive: 13.2% | 
CC(C)CNc1nc(N)c([N+](=O)[O-])c(NCc2ccccc2)n1 | inconclusive: -24.6% | 
Oc1ccccc1-c1cncn1Cc1ccccc1 | inconclusive: 12.5% | 
O=C(NC1CCC(NC(=O)C(F)(F)C(F)F)CC1)C(F)(F)C(F)F (centres undefined) |  | inconclusive: 1.64 µM [falling, single point]
COc1ccc(CNC(=O)CCS(=O)(=O)c2cccc3nonc23)cc1 | inconclusive: 30.5% | 
O=C(OCC1CC(c2ccccc2)=NO1)c1ccco1 (centres undefined) | inconclusive: -8.04% | 
O=C(c1ccc2ccccc2c1)N1CCN(S(=O)(=O)/C=C/c2ccccc2)CC1 | inconclusive: 55.3% | 
CCc1cccc(NC(=O)C2CCN(S(=O)(=O)c3ccc4c(c3)CC(C)N4C(C)=O)CC2)c1 (centres undefined) | inconclusive: -50.9% | 
Cc1cccnc1NC(=O)CN1C(=O)COc2ccc(Cl)cc21 | inconclusive: 27.2% | 
Cc1ccccc1N1CCN(CC(=O)Nc2nc(C)c(C(=O)N(C)C)s2)CC1 | inconclusive: 67.2% | 
[O-]/[N+](=C\C=C\c1ccccc1)c1ccccc1 |  | inconclusive: 29.1 µM [falling, single point]
Cc1ccc(S(=O)(=O)N(Cc2nccn2C)C(C)C)cc1 |  | inconclusive: 29.1 µM [activator, single point]
Cc1ccc2c(Cl)cc(Cl)c(OCC(=O)NC3CCS(=O)(=O)C3)c2n1 (centres undefined) | inconclusive: -6.42% | 
O=c1cc(-c2ccccc2Cl)oc2c(NS(=O)(=O)c3cccs3)ccc(O)c12 | inconclusive: 14.9% | 
CCn1c(CNC(=O)c2cccs2)n[nH]c1=S | inconclusive: 16.3% | 
Cc1ccc(CNC(=O)C2CN(S(C)(=O)=O)c3cc(Cl)ccc3O2)cc1 (centres undefined) |  | inconclusive: 6.51 µM [falling, single point]
COc1ccc(-c2noc(-c3ccco3)n2)cc1OC | inconclusive: 17.2% | 
CCCn1c(N)c(C(=O)CSc2nnc3n2CCCCC3)c(=O)[nH]c1=O |  | inconclusive: 25.9 µM [activator, partial curve, poor fit]
Cc1ccc(S(=O)(=O)N2CCCCC2)cc1C(=O)N1CCN(c2ccccn2)CC1 | inactive: 7.29% | 
CCc1ccc(-c2cc(C(=O)NN3CCOCC3)c3ccccc3n2)cc1 | inconclusive: 14.9% | 
Cc1ccc(-n2nnnc2SCC(=O)Nc2ccccc2N2CCCCC2)cc1C | inconclusive: -25.3% | 
CCCOc1ccc(/C=N/Nc2cc(N3CCOCC3)ncn2)c(O)c1 | inconclusive: -36% | 
CCn1cc(C(=O)NCCN(CC(C)C)CC(C)C)c(=O)c2cc(S(=O)(=O)N3CCOCC3)ccc21 |  | active: 7.31 µM
